Data published in US11576892B2, “Benzopyran derivatives and uses thereof” (Novation Pharmaceuticals Inc., priority 2015, dated 2023).
At least one structure is not confirmed: it was looked up by name or label, or the drawing left a doubt.

Test system: TNF-alpha, IFN-gamma, IL-1beta, IL-2, IL-4, IL-5, IL-6, IL-10, IL-12, KC/GRO
Test: LPS-induced cytokine release in mice, serum cytokine panel (MSD 10 V-plex)
Assay type: in vivo
Details: positive control; serum 4 h post LPS; CD-1 mouse

SMILES: C[C@@H]1C[C@H]2[C@@H]3CCC4=CC(=O)C=C[C@]4(C)[C@@]3(F)[C@@H](O)C[C@]2(C)[C@@]1(O)C(=O)CO [dexamethasone]
- Effect on LPS induction of serum cytokines: blocked induction of most cytokines
